Source: PubChem BioAssay AID210 (DTP/NCI, 2004)
The list does not hold the whole screen: it gathers tests that were run many times, whatever their T/C, doses with no T/C, and many T/C values between a quarter and a half above the control. Further doses and runs are listed elsewhere. T/C is the treated group as % of the vehicle group. Some entries give survivors of the animals treated and no T/C: the source files T/C as zero there, which appears to mark a toxic dose or a test without result, not a measured value. Some doses without a T/C left all or most animals alive at the check, yet need not have been tolerated: the source hardly ever lists a survival T/C far under the control, and the zero likely stands for such cases as well. Counts of survivors are from the toxicity check (mostly the fifth day) where no day follows; animals may have died later. Schedules are NCI's codes, read here as Q, the interval in days (D) or hours (H), X, the number of doses. Some doses were run more than once; the results are listed from low to high. For survival time, this PubChem deposit counts one and a half times the control or more as active, and values a quarter to a half above the control carry no call in these data; other NCI protocols may use other cut-offs. Some T/C values are followed by the survivors on the day toxicity was checked, most often the fifth; without a count, all were alive then.

Test system: CD2F1 mice, ip Colon 26 adenocarcinoma, median survival T/C
Test: NCI In Vivo Anticancer Drug Screen. Data for tumor model Colon 26 Adenocarcinoma (intraperitoneal) in CD2F1 (CDF1) mice
Details: T/C endpoint: median survival time, higher T/C = longer survival
Description: The antitumor activity of compounds was measured in mice bearing transplantable tumors. Survival or tumor size were measured and the results are expressed as the measurement made in the treated group (T) divided by the measurement made in the vehicle treated control group (C). The tumor model used in this assay is Colon 26 Adenocarcinoma (intraperitoneal) in CD2F1 (CDF1) mice

SMILES: O=C([O][Hg][CH2]C1COC([CH2][Hg][O]C(=O)c2ccccc2)CO1)c1ccccc1 (stereo not drawn)
- survivor count (dose: 150.0 mg/kg/injection, schedule: Q04DX003 (ip), vehicle: saline with Tween-80): 0 of 10
- survivor count (dose: 300.0 mg/kg/injection, schedule: Q04DX003 (ip), vehicle: saline with Tween-80): 0 of 10

SMILES: COC(=O)Nc1cccc(-c2nc3ccc(NC(=O)OC)cc3c(=O)n2-c2ccccc2)c1
- T/C (dose: 32.0 mg/kg/injection, schedule: Q04DX003 (ip), vehicle: Klucel (hydroxypropylcellulose) (HPC)): 127 % of control
- survivor count (dose: 128.0 mg/kg/injection, schedule: Q04DX003 (ip), vehicle: Klucel (hydroxypropylcellulose) (HPC)): 4 of 10
- survivor count (dose: 256.0 mg/kg/injection, schedule: Q04DX003 (ip), vehicle: Klucel (hydroxypropylcellulose) (HPC)): 1 of 10
- survivor count (dose: 512.0 mg/kg/injection, schedule: Q04DX003 (ip), vehicle: Klucel (hydroxypropylcellulose) (HPC)): 0 of 10
- survivor count (dose: 1024.0 mg/kg/injection, schedule: Q04DX003 (ip), vehicle: Klucel (hydroxypropylcellulose) (HPC)): 0 of 10

SMILES: O=NN(CCCl)C(=O)NC1CCC(=O)NC1=O (stereo not drawn)
- T/C (dose: 22.0 mg/kg/injection, schedule: Q04DX003 (oral), vehicle: saline with Tween-80): 125 % of control
- survivor count (dose: 22.5 mg/kg/injection, schedule: Q04DX003 (ip), vehicle: saline with Tween-80): 9 of 10
- survivor count (dose: 45.0 mg/kg/injection, schedule: Q04DX003 (ip), vehicle: saline with Tween-80): 4 of 10

SMILES: COc1cccc2c1C(=O)c1c(O)c3c(c(O)c1C2=O)C[C@@](O)(C(C)=O)C[C@@H]3OC1CC(N(Cc2ccccc2)Cc2ccccc2)C(O)C(C)O1 (stereo partly drawn)
- T/C (dose: 6.0 mg/kg/injection, schedule: Q04DX002 (ip), vehicle: saline with Tween-80): 130 % of control
- T/C (dose: 12.0 mg/kg/injection, schedule: Q04DX002 (ip), vehicle: saline with Tween-80): 144 % of control
- T/C (dose: 25.0 mg/kg/injection, schedule: Q04DX002 (ip), vehicle: saline with Tween-80): 143 % of control

SMILES: Nc1ncn(C2OC(CO)C(O)C2O)c(=O)n1 (stereo not drawn)
- T/C (dose: 1.0 mg/kg/injection, schedule: Q04DX003 (ip), vehicle: saline, evaluated on day 60): 104 % of control
- T/C (dose: 1.0 mg/kg/injection, schedule: Q04DX003 (ip), vehicle: saline, evaluated on day 70): 99, 100, 113, 123, 157 % of control
- T/C (dose: 2.0 mg/kg/injection, schedule: Q04DX003 (ip), vehicle: saline, evaluated on day 60): 106 % of control
- T/C (dose: 2.0 mg/kg/injection, schedule: Q04DX003 (ip), vehicle: saline, evaluated on day 70): 105, 106, 114, 131 [9 of 10 alive], 137 % of control
- T/C (dose: 4.0 mg/kg/injection, schedule: Q04DX003 (ip), vehicle: saline, evaluated on day 60): 110 % of control
- T/C (dose: 4.0 mg/kg/injection, schedule: Q04DX003 (ip), vehicle: saline, evaluated on day 70): 100, 109, 122, 127, 189 % of control
- T/C (dose: 8.0 mg/kg/injection, schedule: Q04DX003 (ip), vehicle: saline, evaluated on day 60): 100 % of control
- T/C (dose: 8.0 mg/kg/injection, schedule: Q04DX003 (ip), vehicle: saline, evaluated on day 70): 90, 107, 119, 215, 234 % of control
- T/C (dose: 16.0 mg/kg/injection, schedule: Q04DX003 (ip), vehicle: saline, evaluated on day 60): 117 % of control [9 of 10 alive]
- T/C (dose: 16.0 mg/kg/injection, schedule: Q04DX003 (ip), vehicle: saline, evaluated on day 70): 117, 124, 128, 182 % of control
- survivor count (dose: 16.0 mg/kg/injection, schedule: Q04DX003 (ip), vehicle: saline): 10 of 10
- survivor count (dose: 35.0 mg/kg/injection, schedule: Q04DX003 (iv), vehicle: saline): 10 of 10

SMILES: Nc1nc(=S)c2[nH]cnc2[nH]1
- T/C (dose: 2.0 mg/kg/injection, schedule: Q04DX003 (ip), vehicle: alkali diluted with saline, evaluated on day 60): 105 % of control
- T/C (dose: 2.0 mg/kg/injection, schedule: Q04DX003 (ip), vehicle: alkali diluted with saline, evaluated on day 70): 106 [9 of 10 alive], 114, 120, 125, 182 % of control
- T/C (dose: 4.0 mg/kg/injection, schedule: Q04DX003 (ip), vehicle: alkali diluted with saline, evaluated on day 60): 141 % of control [9 of 10 alive]
- T/C (dose: 4.0 mg/kg/injection, schedule: Q04DX003 (ip), vehicle: alkali diluted with saline, evaluated on day 70): 119, 120, 124, 140, 166 % of control
- T/C (dose: 8.0 mg/kg/injection, schedule: Q04DX003 (ip), vehicle: alkali diluted with saline, evaluated on day 60): 192 % of control
- T/C (dose: 8.0 mg/kg/injection, schedule: Q04DX003 (ip), vehicle: alkali diluted with saline, evaluated on day 70): 135, 145, 156, 162, 247 % of control
- T/C (dose: 16.0 mg/kg/injection, schedule: Q04DX003 (ip), vehicle: alkali diluted with saline, evaluated on day 60): 138 % of control
- T/C (dose: 16.0 mg/kg/injection, schedule: Q04DX003 (ip), vehicle: alkali diluted with saline, evaluated on day 70): 132, 142, 147, 157, 232 % of control
- T/C (dose: 32.0 mg/kg/injection, schedule: Q04DX003 (ip), vehicle: alkali diluted with saline, evaluated on day 60): 116 % of control [8 of 10 alive]
- T/C (dose: 32.0 mg/kg/injection, schedule: Q04DX003 (ip), vehicle: alkali diluted with saline, evaluated on day 70): 154, 163 [9 of 10 alive], 166 % of control
- survivor count (dose: 32.0 mg/kg/injection, schedule: Q04DX003 (ip), vehicle: alkali diluted with saline): 8 of 10 and 10 of 10

SMILES: O=C1c2ccccc2C(=O)c2c(NCCNCCO)ccc(O)c21
- survivor count (dose: 30.0 mg/kg/injection, schedule: Q01DX009 (ip), vehicle: acid diluted with saline): 10 of 10
- survivor count (dose: 32.0 mg/kg/injection, schedule: Q01DX009 (ip), vehicle: acid diluted with saline): 10 of 10
